The target in one test is Myc-RUVBL1 (UniProt Q9Y265). Nature of the test: co-IP; HEK293T cells transfected with Myc-RUVBL1 (in some panels also DTL, HA-Ub, HA-Ub K63 or HA-Ub K63R; in Fig. 6D-F and 7E IR for 4 h before collection); lysate incubated with Myc antibody, western blot.
Test [1] concerns the target RUVBL1 in MDA-MB-231-RR cells (human (endogenous in MDA-MB-231-RR)) (UniProt Q9Y265). Nature of the test: co-IP; MDA-MB-231-RR cells transfected with shDTL (IR for 4 h before collection) or with Flag-DTL, HA-Ub, HA-Ub K63 or HA-Ub K63R; lysate incubated with RUVBL1 antibody, western blot. Background: A western blot detects proteins with antibodies after separation by electrophoresis.

Protein sequences, listed by entry. Tags and fused reporters are not part of them.
UniProt Q9Y265: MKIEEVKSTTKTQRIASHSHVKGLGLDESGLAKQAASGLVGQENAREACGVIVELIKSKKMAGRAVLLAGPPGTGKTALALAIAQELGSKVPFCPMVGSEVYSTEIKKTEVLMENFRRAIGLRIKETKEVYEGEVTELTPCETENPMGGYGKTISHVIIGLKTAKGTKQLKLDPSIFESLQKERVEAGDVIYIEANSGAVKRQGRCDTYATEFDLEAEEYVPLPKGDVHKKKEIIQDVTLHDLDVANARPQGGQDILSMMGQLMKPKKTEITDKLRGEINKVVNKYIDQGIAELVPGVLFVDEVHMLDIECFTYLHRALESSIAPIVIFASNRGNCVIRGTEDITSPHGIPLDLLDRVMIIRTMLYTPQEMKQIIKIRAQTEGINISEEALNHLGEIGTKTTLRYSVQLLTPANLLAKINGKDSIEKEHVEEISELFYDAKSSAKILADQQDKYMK
UniProt P01106: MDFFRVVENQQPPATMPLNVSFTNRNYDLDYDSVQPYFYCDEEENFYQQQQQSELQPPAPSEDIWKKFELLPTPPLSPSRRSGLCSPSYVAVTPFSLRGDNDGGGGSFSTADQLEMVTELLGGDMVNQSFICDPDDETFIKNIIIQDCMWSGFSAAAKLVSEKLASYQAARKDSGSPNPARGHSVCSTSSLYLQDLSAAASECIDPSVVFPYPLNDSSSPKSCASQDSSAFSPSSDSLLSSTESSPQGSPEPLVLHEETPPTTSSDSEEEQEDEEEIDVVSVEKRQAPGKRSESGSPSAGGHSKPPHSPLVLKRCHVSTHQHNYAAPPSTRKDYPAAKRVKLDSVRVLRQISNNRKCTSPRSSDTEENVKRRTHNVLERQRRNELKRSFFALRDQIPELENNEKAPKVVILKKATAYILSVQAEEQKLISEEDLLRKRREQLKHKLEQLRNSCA
UniProt P35222: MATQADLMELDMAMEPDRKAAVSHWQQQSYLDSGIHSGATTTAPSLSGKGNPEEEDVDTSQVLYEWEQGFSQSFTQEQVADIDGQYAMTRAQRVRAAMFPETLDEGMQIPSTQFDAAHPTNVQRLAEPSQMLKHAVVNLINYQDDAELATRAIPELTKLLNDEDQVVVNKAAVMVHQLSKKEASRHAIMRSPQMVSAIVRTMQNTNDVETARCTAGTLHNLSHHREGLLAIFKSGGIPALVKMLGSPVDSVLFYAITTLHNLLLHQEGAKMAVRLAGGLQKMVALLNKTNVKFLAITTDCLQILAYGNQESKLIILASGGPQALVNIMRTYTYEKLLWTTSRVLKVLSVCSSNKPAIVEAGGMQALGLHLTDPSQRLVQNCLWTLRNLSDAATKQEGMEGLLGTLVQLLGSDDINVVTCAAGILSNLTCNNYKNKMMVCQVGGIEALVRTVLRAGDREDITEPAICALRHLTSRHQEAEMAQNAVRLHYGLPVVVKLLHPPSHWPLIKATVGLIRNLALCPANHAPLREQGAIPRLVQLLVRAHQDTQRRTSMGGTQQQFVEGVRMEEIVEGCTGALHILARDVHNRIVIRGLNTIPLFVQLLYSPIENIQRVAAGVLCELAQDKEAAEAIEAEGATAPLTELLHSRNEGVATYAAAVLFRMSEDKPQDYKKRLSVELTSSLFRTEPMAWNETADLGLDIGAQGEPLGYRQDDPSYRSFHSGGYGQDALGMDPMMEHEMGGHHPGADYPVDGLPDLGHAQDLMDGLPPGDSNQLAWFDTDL
UniProt Q9NZJ0: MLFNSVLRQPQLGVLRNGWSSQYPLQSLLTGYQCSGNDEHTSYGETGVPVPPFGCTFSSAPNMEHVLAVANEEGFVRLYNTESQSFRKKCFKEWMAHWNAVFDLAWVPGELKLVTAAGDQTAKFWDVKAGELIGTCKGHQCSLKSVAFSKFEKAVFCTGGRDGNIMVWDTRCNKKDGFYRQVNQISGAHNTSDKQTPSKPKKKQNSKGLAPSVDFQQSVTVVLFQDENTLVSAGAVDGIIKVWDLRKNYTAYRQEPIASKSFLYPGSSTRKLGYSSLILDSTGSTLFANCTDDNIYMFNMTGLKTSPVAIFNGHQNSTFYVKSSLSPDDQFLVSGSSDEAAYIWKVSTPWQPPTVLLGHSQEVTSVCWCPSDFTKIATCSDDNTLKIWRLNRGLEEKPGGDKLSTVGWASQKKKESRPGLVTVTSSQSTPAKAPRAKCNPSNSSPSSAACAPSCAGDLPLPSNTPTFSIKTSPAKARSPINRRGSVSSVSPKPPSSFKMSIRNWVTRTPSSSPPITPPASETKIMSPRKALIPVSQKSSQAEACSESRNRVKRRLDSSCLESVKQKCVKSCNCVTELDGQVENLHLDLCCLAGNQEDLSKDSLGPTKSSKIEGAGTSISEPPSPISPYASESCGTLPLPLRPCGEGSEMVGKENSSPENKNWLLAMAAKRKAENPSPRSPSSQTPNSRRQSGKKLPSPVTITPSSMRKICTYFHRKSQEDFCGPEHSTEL
UniProt P40763: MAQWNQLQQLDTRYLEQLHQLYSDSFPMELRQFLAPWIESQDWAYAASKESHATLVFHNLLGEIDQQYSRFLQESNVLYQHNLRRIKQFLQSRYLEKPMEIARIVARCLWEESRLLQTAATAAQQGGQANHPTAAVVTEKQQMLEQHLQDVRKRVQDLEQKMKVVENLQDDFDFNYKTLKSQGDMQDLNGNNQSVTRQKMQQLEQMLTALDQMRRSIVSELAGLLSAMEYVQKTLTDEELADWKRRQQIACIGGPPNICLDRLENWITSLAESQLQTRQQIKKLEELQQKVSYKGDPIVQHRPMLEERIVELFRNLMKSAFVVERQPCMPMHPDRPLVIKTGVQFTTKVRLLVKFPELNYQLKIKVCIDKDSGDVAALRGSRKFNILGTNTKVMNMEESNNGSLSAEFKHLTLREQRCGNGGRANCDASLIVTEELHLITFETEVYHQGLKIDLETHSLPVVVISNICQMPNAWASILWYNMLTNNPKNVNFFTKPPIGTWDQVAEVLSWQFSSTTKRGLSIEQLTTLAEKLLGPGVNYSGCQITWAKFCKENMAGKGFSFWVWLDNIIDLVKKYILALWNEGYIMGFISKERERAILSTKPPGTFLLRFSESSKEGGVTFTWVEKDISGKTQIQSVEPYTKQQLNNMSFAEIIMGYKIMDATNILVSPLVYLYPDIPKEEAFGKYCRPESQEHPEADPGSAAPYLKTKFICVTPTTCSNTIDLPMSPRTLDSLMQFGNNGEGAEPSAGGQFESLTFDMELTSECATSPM
UniProt Q92993: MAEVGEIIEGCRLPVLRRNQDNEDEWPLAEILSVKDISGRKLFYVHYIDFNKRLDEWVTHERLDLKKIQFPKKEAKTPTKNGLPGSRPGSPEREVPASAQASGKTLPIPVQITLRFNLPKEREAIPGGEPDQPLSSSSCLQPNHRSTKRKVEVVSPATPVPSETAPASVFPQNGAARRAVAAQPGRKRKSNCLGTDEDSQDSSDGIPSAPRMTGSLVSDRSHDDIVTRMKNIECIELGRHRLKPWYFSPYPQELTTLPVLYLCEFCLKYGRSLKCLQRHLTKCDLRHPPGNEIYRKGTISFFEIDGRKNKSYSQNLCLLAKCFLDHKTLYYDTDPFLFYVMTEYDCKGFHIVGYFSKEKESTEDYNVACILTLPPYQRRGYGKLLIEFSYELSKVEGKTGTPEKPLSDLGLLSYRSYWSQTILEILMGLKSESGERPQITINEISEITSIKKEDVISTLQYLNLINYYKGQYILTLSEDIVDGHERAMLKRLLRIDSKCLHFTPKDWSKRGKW

The target in test [2] is RUVBL1 in MDA-MB-231-RUVBL1 cells (stably expressed Myc-RUVBL1) (UniProt Q9Y265). Kind of test: co-IP; MDA-MB-231-RUVBL1 cell lysate, IP with RUVBL1 antibody, western blot; Fig. 6C after 4 h of IR, compared with IgG.

These are yes or no findings as the source states them, for the method shown. Binding seen in cells or lysates may run through a third protein. Some binding calls cover weakened binding; strength is not graded here.

Regarding c-Myc (from UniProt P01106 1-454), the binding result with Myc-RUVBL1 was “binds”.
With β-catenin (from UniProt P35222 1-781), the binding result (in the test with Myc-RUVBL1; in test [1]) was “binds” each time.
Take DTL (from UniProt Q9NZJ0 1-730): the binding result (with Myc-RUVBL1; in test [2]) was “binds” throughout.
With STAT3 (from UniProt P40763 1-770), the binding result in the test with Myc-RUVBL1 is “binds”.
“Tat-interacting protein 60 (TIP60) (from UniProt Q92993 1-513)”: the binding entry (with Myc-RUVBL1; in test [1]) was “binds” each time.

For the origin of these results see publication PMC11015013.
